This is an account of results in article PMC8917190.

Protein sequences, listed by entry. Tags and fused reporters are not part of them. Residues count along the entry.
UniProt P34152: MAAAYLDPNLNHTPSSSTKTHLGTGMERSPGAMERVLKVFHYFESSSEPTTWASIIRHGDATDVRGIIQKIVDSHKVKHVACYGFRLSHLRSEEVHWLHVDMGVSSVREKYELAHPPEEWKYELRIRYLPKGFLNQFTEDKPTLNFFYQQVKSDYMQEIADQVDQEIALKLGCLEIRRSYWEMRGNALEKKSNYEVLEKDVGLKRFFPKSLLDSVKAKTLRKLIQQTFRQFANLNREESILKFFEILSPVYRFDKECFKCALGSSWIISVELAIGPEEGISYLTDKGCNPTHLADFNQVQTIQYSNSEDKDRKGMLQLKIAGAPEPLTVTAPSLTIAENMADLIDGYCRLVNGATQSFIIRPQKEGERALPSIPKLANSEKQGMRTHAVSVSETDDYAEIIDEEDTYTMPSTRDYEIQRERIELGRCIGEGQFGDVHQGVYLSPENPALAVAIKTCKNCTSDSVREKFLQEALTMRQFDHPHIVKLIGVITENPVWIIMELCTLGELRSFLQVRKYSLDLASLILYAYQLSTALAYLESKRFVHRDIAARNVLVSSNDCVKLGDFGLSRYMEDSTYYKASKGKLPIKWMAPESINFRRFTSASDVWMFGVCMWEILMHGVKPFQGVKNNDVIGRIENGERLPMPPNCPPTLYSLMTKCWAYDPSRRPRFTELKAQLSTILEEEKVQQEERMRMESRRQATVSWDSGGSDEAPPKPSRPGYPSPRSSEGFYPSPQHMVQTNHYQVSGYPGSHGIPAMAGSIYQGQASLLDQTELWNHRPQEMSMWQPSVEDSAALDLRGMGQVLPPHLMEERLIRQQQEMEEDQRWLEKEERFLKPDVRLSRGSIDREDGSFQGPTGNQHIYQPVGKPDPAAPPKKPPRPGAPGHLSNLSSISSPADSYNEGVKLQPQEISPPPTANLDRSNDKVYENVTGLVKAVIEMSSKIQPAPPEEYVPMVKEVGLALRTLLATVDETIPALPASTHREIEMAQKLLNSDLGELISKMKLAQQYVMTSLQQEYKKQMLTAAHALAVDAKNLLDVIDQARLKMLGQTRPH
UniProt P02469, residues 22-1786: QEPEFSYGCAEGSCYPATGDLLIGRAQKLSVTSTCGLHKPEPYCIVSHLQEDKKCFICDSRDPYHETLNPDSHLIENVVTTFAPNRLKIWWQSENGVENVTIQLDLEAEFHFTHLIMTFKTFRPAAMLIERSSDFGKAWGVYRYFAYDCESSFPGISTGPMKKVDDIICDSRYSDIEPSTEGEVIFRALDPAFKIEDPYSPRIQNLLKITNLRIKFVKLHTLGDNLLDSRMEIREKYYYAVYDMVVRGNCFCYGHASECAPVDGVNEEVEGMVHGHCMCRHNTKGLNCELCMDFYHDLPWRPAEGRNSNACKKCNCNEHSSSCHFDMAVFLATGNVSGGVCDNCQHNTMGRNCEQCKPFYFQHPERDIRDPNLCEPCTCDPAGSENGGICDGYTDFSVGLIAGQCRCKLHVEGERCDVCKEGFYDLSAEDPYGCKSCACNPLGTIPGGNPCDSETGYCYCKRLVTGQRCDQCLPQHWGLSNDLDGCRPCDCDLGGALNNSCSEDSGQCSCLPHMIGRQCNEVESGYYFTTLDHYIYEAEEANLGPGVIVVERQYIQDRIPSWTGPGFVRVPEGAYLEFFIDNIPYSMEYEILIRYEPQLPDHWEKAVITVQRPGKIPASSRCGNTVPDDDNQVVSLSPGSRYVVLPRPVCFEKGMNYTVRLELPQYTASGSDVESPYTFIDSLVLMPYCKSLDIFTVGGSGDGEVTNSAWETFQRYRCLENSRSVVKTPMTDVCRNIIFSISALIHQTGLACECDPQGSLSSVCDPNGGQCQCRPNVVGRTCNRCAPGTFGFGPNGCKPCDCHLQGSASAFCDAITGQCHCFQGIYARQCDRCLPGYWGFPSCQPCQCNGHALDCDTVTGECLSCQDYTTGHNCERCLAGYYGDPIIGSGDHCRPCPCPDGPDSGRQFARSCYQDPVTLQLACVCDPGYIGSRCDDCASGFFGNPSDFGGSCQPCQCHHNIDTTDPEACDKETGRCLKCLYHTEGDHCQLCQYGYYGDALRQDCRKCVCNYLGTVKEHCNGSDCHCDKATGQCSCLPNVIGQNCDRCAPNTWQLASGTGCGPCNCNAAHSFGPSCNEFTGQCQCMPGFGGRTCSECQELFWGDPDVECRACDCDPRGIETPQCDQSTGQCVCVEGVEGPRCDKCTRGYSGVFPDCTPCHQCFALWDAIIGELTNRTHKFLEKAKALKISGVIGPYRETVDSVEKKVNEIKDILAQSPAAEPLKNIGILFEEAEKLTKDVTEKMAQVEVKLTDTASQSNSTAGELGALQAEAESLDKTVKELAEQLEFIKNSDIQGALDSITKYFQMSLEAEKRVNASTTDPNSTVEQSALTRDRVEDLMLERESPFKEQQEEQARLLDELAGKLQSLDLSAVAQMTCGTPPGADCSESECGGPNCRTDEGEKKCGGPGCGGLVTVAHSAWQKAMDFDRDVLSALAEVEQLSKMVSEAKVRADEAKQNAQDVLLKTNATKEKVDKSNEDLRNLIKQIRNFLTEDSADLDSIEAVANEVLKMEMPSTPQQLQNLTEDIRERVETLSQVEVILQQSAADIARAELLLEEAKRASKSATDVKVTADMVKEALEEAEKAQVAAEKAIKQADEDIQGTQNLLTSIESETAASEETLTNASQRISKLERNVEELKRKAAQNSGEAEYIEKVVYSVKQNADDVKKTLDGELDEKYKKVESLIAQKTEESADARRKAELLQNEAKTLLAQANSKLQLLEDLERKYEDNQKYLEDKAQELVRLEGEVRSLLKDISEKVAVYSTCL

The test concerns the target focal adhesion kinase (mouse (endogenous in chondrocytes of newborn C57BL/6J mice)) (UniProt P34152). The test can be described thus: co-IP; Pierce co-immunoprecipitation kit; anti-FAK antibody (bait) bound to the resin, incubated with chondrocyte lysate overnight (12-16 h); eluate probed by western blot. (In general: Immunoblotting shows a protein as a band on a membrane.)

Results are given in words; binding and its absence hold for the method and conditions named. Binding seen in cells or lysates may run through a third protein. Some results given as binding are weak or reduced against the parent protein; the word gives no strength.

Consider “laminin β1 (from UniProt P02469 22-1786)”, for which the binding entry is reported as “binds”.
